The record followed here is PMC12533970.

The series has as its target SmU2AF65 (Schistosoma mansoni) (UniProt C4Q2F6). Put plainly: EMSA. Conditions: Carubicin hydrochloride (CH) 10 uM, pre-incubated with protein; EMSA: 0.5 pmol FAM-RNA (heated 70 C 5 min, cooled on ice) with 1 ug WT or 2 ug mutant protein in 10 uL Beyotime reaction buffer (composition, salt and pH not stated); recombinant protein; residues 1-521; protein details: His+SUMO, cleaved with ULP1.

Construct, isoform or probe ends are uncertain for at least one entry. The comparison behind a weaker result is the experiment's own reference, which may not be listed here.

As to “UACAUAAAUUAAUAAGUAUUUUUACUUUUUUUUAUUUUCAAUUUCAACAG [50-nt intron 3' region consensus RNA]”, the binding result was “binds more weakly”.
